# Test results reported in PubChem BioAssay AID252 (DTP/NCI, 2004).
# The list does not hold the whole screen: it is rich in T/C values a quarter to a half above the control, in often repeated tests (any T/C) and in doses without a T/C. Other doses and runs of a compound stand elsewhere. T/C is the treated group as % of the vehicle group. Some doses have a count of surviving animals in place of a T/C: the source holds a T/C of zero for them, seemingly a mark for toxic or unscored doses. Some doses without a T/C left all or most animals alive at the check, yet need not have been tolerated: survival well below the control is almost never listed, so the zero probably covers shortened survival too. Counts of survivors are from the toxicity check (mostly the fifth day) where no day follows; animals may have died later. Schedules are NCI's codes, read here as Q, the interval in days (D) or hours (H), X, the number of doses. Some schedule codes hold Z or #, which are not explained here. Some entries hold several experiments; the values are given in rising order. For survival time, the PubChem record calls one and a half times the control and up active, and a quarter to a half above the control has no call in these data; cut-offs in other NCI protocols can differ. Some T/C values are followed by the survivors on the day toxicity was checked, most often the fifth; without a count, all were alive then.
# System: BDF1 mice, intracerebral L1210 leukemia, survival T/C
# Assay: NCI In Vivo Anticancer Drug Screen. Data for tumor model L1210 Leukemia (intracerebral) in B6D2F1 (BDF1) mice
# Details: higher T/C = longer survival
# Outline: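 Survival measured in treated and vehicle-control tumour-bearing mice; value = T/C.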
# [1] = T/C endpoint: mean survival time, dose: 4.0 mg/kg/injection, schedule: Q01DX009 (ip), vehicle: saline
# [2] = T/C endpoint: mean survival time, dose: 8.0 mg/kg/injection, schedule: Q01DX009 (ip), vehicle: saline
smiles,measurement,setting,value
NCCCCS(=O)(=O)Nc1ccc(Nc2c3ccccc3nc3cc([N+](=O)[O-])ccc23)cc1,survivor count,"T/C endpoint: mean survival time, dose: 100.0 mg/kg/injection, schedule: Q01DX009 (ip), vehicle: saline",9 of 10
same,survivor count,"T/C endpoint: mean survival time, dose: 200.0 mg/kg/injection, schedule: Q01DX009 (ip), vehicle: saline",7 of 10
CC(C)(C)C1CCC(NC(=O)N(CCCl)N=O)CC1 (centres undefined),T/C,"T/C endpoint: mean survival time, dose: 750.0 mg/kg/injection, schedule: Q01DX001 (ip), vehicle: other",143 % of control [9 of 10 alive]
same,survivor count,"T/C endpoint: mean survival time, dose: 944.0 mg/kg/injection, schedule: Q01DX001 (ip), vehicle: other",5 of 6
NC(C/[N+]([O-])=N/O)C(=O)O (centres undefined),survivor count,"T/C endpoint: mean survival time, dose: 200.0 mg/kg/injection, schedule: Q01DX009 (ip), vehicle: other",9 of 10
O=C1C(Cl)=C(N2CC2)C(=O)C(Cl)=C1N1CC1,survivor count,"T/C endpoint: mean survival time, dose: 20.0 mg/kg/injection, schedule: Q01DX009 (ip), vehicle: saline",2 of 6 and 3 of 6
C[C@H](CN1CC(=O)NC(=O)C1)N1CC(=O)NC(=O)C1,T/C,"T/C endpoint: median survival time, dose: 32.0 mg/kg/injection, schedule: Q01DX009 (ip), vehicle: water, evaluated on day 30",131 % of control
same,T/C,"T/C endpoint: median survival time, dose: 32.0 mg/kg/injection, schedule: Q01DX009 (ip), vehicle: water, evaluated on day 31",130 % of control
same,T/C,"T/C endpoint: median survival time, dose: 64.0 mg/kg/injection, schedule: Q01DX009 (ip), vehicle: water, evaluated on day 30",149 % of control
same,T/C,"T/C endpoint: median survival time, dose: 64.0 mg/kg/injection, schedule: Q01DX009 (ip), vehicle: water, evaluated on day 31",137 % of control [8 of 10 alive]
same,T/C,"T/C endpoint: median survival time, dose: 128.0 mg/kg/injection, schedule: Q01DX009 (ip), vehicle: water, evaluated on day 31",146 % of control
same,T/C,"T/C endpoint: median survival time, dose: 128.0 mg/kg/injection, schedule: Q01DX009 (ip), vehicle: water, evaluated on day 36",130 % of control [8 of 10 alive]
same,survivor count,"T/C endpoint: median survival time, dose: 512.0 mg/kg/injection, schedule: Q01DX009 (ip), vehicle: water",9 of 10
O=NN(CCCl)C(=O)NC1C2CC3CC(C2)CC1C3 (centres undefined),T/C,"T/C endpoint: mean survival time, dose: 95.0 mg/kg/injection, schedule: Q01DX001 (ip), vehicle: other",128 % of control
same,T/C,"T/C endpoint: mean survival time, dose: 362.0 mg/kg/injection, schedule: Q01DX001 (ip), vehicle: other",141 % of control [9 of 10 alive]
[N-]=[N+]=CC(=O)NCC(=O)NN,survivor count,"T/C endpoint: mean survival time, dose: 600.0 mg/kg/injection, schedule: Q01DX Z (ip), vehicle: water",6 of 6
CN(N=O)C(=O)NCCCNC(=O)N(C)N=O,T/C,"T/C endpoint: mean survival time, dose: 600.0 mg/kg/injection, schedule: Q01DX001 (ip), vehicle: carboxymethylcellulose (CMC)",130 % of control [8 of 10 alive]
same,survivor count,"T/C endpoint: mean survival time, dose: 1200.0 mg/kg/injection, schedule: Q01DX001 (ip), vehicle: carboxymethylcellulose (CMC)",0 of 10
same,survivor count,"T/C endpoint: mean survival time, dose: 2400.0 mg/kg/injection, schedule: Q01DX001 (ip), vehicle: carboxymethylcellulose (CMC)",0 of 10
CS(=O)(=O)Nc1ccc(Nc2c3ccccc3nc3cc(N)ccc23)cc1,survivor count,[1],10 of 10
same,survivor count,[2],6 of 10
same,survivor count,"T/C endpoint: mean survival time, dose: 8.0 mg/kg/injection, schedule: Q01DX009 (sc), vehicle: saline",10 of 10
CN(N=O)C(=O)Nc1ccc(C(=O)O)cc1,survivor count,"T/C endpoint: mean survival time, dose: 240.0 mg/kg/injection, schedule: Q01DX001 (ip), vehicle: carboxymethylcellulose (CMC)",8 of 10
same,survivor count,"T/C endpoint: mean survival time, dose: 480.0 mg/kg/injection, schedule: Q01DX001 (ip), vehicle: carboxymethylcellulose (CMC)",0 of 10
same,survivor count,"T/C endpoint: mean survival time, dose: 960.0 mg/kg/injection, schedule: Q01DX001 (ip), vehicle: carboxymethylcellulose (CMC)",0 of 10
CCOC(N)=O,survivor count,"T/C endpoint: mean survival time, dose: 2390.0 mg/kg/injection, schedule: Q01DX001 (ip), vehicle: saline",1 of 10
COc1cccnc1/C=N/NC(N)=S,survivor count,"T/C endpoint: median survival time, dose: 24.0 mg/kg/injection, schedule: Q01DX009 (ip), vehicle: saline with Tween-80",0 of 6
CCn1cnc2c(SC(C)C)ncnc21,T/C,"T/C endpoint: mean survival time, dose: 125.0 mg/kg/injection, schedule: Q01DX Z (ip), vehicle: carboxymethylcellulose (CMC)",125 % of control
CCOC1=C(N2CC2)C(=O)C(OCC)=C(N2CC2)C1=O,T/C,"T/C endpoint: mean survival time, dose: 2.0 mg/kg/injection, schedule: Q01DX009 (ip), vehicle: saline",133 % of control
same,T/C,[1],143 % of control
same,survivor count,[2],6 of 6
O=NN(CCCl)C(=O)NC1C=CCCC1 (centres undefined),T/C,"T/C endpoint: mean survival time, dose: 40.0 mg/kg/injection, schedule: Q01DX001 (ip), vehicle: other",126 % of control
Cc1cccc(C)c1NC(=O)N(CCCl)N=O,T/C,"T/C endpoint: mean survival time, dose: 46.0 mg/kg/injection, schedule: Q01DX001 (ip), vehicle: carboxymethylcellulose (CMC)",131 % of control
N=[N+]=CC(=O)OCC(N)C(=O)O (centres undefined),survivor count,"T/C endpoint: mean survival time, dose: 98.0 mg/kg/injection, schedule: Q01DX001 (ip), vehicle: saline",6 of 10
